In PMC4924846:
Where a chain is given by its changes, count along the chain named. No constants are given. Whether binding was seen depends on the method and setting. In cells and extracts the contact can be indirect. Some entries that bind do so weakly or less than the wild type. Where a sequence is shown, tags or fusion partners need not be part of it.

How the values were obtained:
[1] = biological target: T1, C-terminal Myc-tagged wild-type human Organic Solute Transporter beta (human) (UniProt Q86UW2); experiment: co-IP; HEK293 cells co-transfected with OSTβ-Myc (WT or LL/AA) and OSTα-Flag; lysed in M-PER with protease inhibitors; anti-Myc antibody overnight at 4°C, protein A/G beads; blot with anti-Flag and anti-Myc
T1 sequence: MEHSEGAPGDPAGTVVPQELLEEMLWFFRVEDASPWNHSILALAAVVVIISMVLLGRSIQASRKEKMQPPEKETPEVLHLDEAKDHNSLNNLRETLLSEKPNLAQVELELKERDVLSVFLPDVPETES

[2] = biological target: T2, LL/AA mutant of C-terminal Myc-tagged human Organic Solute Transporter beta (human) (UniProt Q86UW2); experiment: as above
T2 sequence: T1 sequence with L20A, L21A

- binding [1]: binds
- binding [2]: binds weakly
B1: C-terminal Flag-tagged wild-type human Organic Solute Transporter alpha (protein, UniProt Q86UW1 1-340)
chain: MEPGRTQIKLDPRYTADLLEVLKTNYGIPSACFSQPPTAAQLLRALGPVELALTSILTLLALGSIAIFLEDAVYLYKNTLCPIKRRTLLWKSSAPTVVSVLCCFGLWIPRSLVLVEMTITSFYAVCFYLLMLVMVEGFGGKEAVLRTLRDTPMMVHTGPCCCCCPCCPRLLLTRKKLQLLMLGPFQYAFLKITLTLVGLFLVPDGIYDPADISEGSTALWINTFLGVSTLLALWTLGIISRQARLHLGEQNMGAKFALFQVLLILTALQPSIFSVLANGGQIACSPPYSSKTRSQVMNCHLLILETFLMTVLTRMYYRRKDHKVGYETFSSPDLDLNLKA
